# Experimental data as given in PubChem BioAssay (NCATS).
# Inconclusive results, whose numbers are uncertain, are shown with a selection of clear calls. Where the call is inconclusive, the potency comes from a doubtful curve fit. Activity calls are given as the source filed them. Calls come from the whole dose curve; as a rule, active = well fitted cell-killing curve with a large enough effect; inconclusive = small, poorly fitted or top-dose-only effect, or effect the other way; inactive = no such curve, though single readings can be large or run the other way.
# Assay: Quantitative High-Throughput drug screen in 47 multiple myeloma cell lines against the NCATS MIPE library collection: MMM1_PLB cell viability assay (AID 1918976); note: nearly all actives have a fitted effect of over 35% in size
# Conditions: MMM1 myeloma cells viability, CellTiter-Glo, 48 h; series mostly up to 45.8 µM; viability (% of control): at the top concentration
# Outline: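 MIPE 4.0 approved/investigational drugs; 500 cells/well; 48 h 37 °C humidified 5% CO2; CTG luminescence readout; DMSO = 100%, media = 0% viability.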
# Potency is the fitted concentration of half-maximal effect.
Structure (SMILES),viability (% of control),Potency
Cn1c(=O)c2c(ncn2CC(O)CO)n(C)c1=O (stereo not drawn),inactive: 160%,–
N[C@@H](Cc1ccc(O)c(O)c1)C(=O)O,–,"inconclusive: 26.4 µM [cytotoxic, single point]"
CC(C)(C)OC(=O)Nc1ccc(-c2cc(C(=O)NCCCCCCC(=O)NO)no2)cc1,–,"inconclusive: 1.48 µM [cytotoxic, full curve, poor fit]"
CON=C(C(=O)N[C@@H]1C(=O)N2C(C(=O)O)=C(Cn3ccc(=N)n3CCO)CS[C@H]12)c1csc(N)n1,–,"inconclusive: 0.0093 µM [rising, full curve]"
O=C(O)CCc1ccc(NCc2cccc(Oc3ccccc3)c2)cc1,–,"inconclusive: 0.0033 µM [rising, full curve, poor fit]"
Cn1cc(-c2ccncc2)c(-c2ccc(OCc3ccc4ccccc4n3)cc2)n1,–,active: 2.96 µM
COc1cccc(Nc2c(C(N)=O)cnc3c(C)cc(S(=O)(=O)c4cccc(C(=O)N(C)C)c4)cc23)c1,–,"inconclusive: 10.2 µM [cytotoxic, partial curve, poor fit]"
COc1ccc2c(c1OC)C(=O)OC2[C@H]1c2c(cc3c(c2OC)OCO3)CCN1C (stereo partly drawn),–,active: 2.64 µM
